# Some of these results come from one statement about several compounds together.
# Experiment: Screening assay: formation (precipitation) of solid poly oxo-hydroxy iron in presence of ligand
# Format: physicochemical
# Conditions: ratios 1:1 to 1:5
# Experimental: A series of dietary ligands was tested in a screening assay for their effects on the formation of solid ligand-modified poly oxo-hydroxy metal ion materials. Briefly, in a centrifuge tube, a fixed volume of stock solution of ferric iron (400 mM FeCl3 with 50 mM MOPS, pH 1.4) was mixed with varying volumes of a stock solution of ligand (400 mM with the exception of maltol which was 200 mM, plus MOPS at 50 mM and 0.9% NaCl) to obtain the desired metal:ligand ratio. The volumes were then equally adjusted to parity with a solution of 50 mM MOPS and 0.9% NaCl. […] A small aliquot was taken to confirm the starting iron concentration and then the pH was raised to ˜6.5 by drop-wise addition of concentrated NaOH to avoid high volume changes. After centrifugation at 2500 rpm for 10 minutes, an aliquot of supernatant was taken to analyse the iron remaining in solution. The remaining supernatant was discarded and a fixed volume of dissolution buffer at pH 6 (MOPS10 mM) or pH 4 (Acetic acid 10 mM) was then added to the wet solid of each tube and incubated overnight at room temperature. The tubes were then centrifuged (2500 rpm for 10 minutes) and an aliquot of supernatant taken to determine the iron that was disaggregated. The iron concentration in each aliquot was measured by ICPOES analysis.
# Initially, the ligands were all tested using the screening assay described above at ratios of 1:1 to 1:5 and classified in three groups.
row,SMILES,Ligand group by effect on the amount of solid material formed
1,N[C@@H](Cc1c[nH]cn1)C(=O)O [histidine],weak ligands (ligands found to have little effect on the amount of solid material formed (<10% at all the ratios tested))
2,N[C@@H](CCC(=O)O)C(=O)O [glutamic acid],weak ligands (ligands found to have little effect on the amount of solid material formed (<10% at all the ratios tested))
3,CC(O)C(=O)O (stereo not drawn) [lactic acid],weak ligands (ligands found to have little effect on the amount of solid material formed (<10% at all the ratios tested))
4,O=C(O)CC(O)(CC(=O)O)C(=O)O [citric acid],strong ligands (ligands found to inhibit the formation of 80% of the solid material at ratio 1:1)
5,Cc1occc(=O)c1O [maltol],strong ligands (ligands found to inhibit the formation of 80% of the solid material at ratio 1:1)
6,N[C@@H](CC(=O)O)C(=O)O [aspartic acid],weak ligands (ligands found to have little effect on the amount of solid material formed (<10% at all the ratios tested))

# — patent US8058462B2, “Ligand modified poly oxo-hydroxy metal ion materials, their uses and processes for their preparation” (Medical Research Council, priority 2007, dated 2011)
